No constants are given. Whether binding was seen depends on the method and setting. Some entries that bind do so weakly or less than the wild type. Tags and fused reporters may be left off the sequences shown.

The chains behind the UniProt entries cited, without tags or fusion partners. Residues count along the entry.
UniProt Q9Z132, residues 21-265: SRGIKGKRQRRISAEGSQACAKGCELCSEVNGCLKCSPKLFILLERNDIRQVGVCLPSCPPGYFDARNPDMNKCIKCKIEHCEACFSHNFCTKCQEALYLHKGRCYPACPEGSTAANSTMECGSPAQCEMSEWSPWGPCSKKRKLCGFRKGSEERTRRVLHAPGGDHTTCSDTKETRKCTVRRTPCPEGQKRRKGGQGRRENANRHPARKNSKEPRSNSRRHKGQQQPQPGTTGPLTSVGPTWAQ

This test has as its target T1, human LGR6 (leucine-rich repeat containing, G protein-coupled receptor 6) with a Flag-tag at the N-terminus, wild type (human) (UniProt Q9HBX8).
T1 sequence: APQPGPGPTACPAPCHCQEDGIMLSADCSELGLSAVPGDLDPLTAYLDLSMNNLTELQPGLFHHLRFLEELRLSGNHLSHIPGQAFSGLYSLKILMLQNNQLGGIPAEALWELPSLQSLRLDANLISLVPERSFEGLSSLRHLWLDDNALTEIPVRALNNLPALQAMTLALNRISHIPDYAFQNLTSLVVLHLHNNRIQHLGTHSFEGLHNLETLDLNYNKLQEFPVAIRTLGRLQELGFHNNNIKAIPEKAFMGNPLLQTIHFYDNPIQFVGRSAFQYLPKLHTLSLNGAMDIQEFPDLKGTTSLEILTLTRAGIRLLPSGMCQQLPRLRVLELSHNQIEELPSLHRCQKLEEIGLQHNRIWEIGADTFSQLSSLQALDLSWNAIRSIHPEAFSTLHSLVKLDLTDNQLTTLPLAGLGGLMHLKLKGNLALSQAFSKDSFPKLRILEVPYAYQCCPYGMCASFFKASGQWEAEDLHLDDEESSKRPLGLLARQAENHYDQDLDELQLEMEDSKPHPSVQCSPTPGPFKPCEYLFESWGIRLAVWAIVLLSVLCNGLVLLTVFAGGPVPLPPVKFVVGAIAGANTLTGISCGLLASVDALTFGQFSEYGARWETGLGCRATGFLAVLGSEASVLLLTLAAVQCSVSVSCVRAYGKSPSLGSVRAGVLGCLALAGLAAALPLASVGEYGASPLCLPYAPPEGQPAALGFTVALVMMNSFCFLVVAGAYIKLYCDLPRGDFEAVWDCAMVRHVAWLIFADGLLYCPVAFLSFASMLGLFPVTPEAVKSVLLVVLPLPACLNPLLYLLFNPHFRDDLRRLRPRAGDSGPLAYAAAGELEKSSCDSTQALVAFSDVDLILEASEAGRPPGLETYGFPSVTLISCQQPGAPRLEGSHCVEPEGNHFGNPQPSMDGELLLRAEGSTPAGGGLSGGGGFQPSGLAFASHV
Kind of test: whole-cell-based competition binding assay; the pair that is displaced: mRSPO1-Fc on HEK293 cells stably expressing Flag-LGR6, without and with serial dilutions of RSPO1–4.

On to “fusion protein consisting of mouse RSPO1 with mouse IgG2a-Fc at the C-terminus (from UniProt Q9Z132 21-265) (Fc fusion)”, for which the binding entry is on record as “binds”.

For the origin of these results see PMC3355120, “LGR6 Is a High Affinity Receptor of R-Spondins and Potentially Functions as a Tumor Suppressor” (PLoS ONE, 2012).
